Laboratory results: publication PMC8492728
No constants are given. Whether binding was seen depends on the method and setting. Binding seen in cells or lysates may run through a third protein. Some entries that bind do so weakly or less than the wild type.

Chains of the proteins cited; added tags and fusions are not shown.
UniProt Q04206: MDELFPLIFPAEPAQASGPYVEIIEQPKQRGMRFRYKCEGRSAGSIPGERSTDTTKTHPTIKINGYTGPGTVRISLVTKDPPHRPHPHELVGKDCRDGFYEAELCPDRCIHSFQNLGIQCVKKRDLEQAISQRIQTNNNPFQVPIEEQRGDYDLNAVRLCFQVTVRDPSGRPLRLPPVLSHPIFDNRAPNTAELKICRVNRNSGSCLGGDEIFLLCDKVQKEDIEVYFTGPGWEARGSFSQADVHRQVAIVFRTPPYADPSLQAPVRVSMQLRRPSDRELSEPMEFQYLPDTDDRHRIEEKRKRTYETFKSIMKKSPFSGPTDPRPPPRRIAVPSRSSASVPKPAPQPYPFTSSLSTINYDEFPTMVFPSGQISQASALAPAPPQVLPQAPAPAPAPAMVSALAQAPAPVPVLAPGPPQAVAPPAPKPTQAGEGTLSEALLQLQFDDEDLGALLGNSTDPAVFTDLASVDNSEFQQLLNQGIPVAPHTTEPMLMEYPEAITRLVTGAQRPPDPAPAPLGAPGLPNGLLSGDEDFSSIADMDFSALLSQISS

Target: NF-κB/p65 (human (endogenous in NSCLC cells; line not named for Fig. 4k, A549 in the other panels)) (UniProt Q04206)
Test: co-IP; cells with or without TGF-β; lysates incubated overnight at 4 °C with anti-p65 antibody or IgG, then protein A/G-agarose; immunoblot

binding: binds
B1: Myocardin-related transcription factor-A (protein, UniProt Q969V6 1-931)
chain: MPPLKSPAAFHEQRRSLERARTEDYLKRKIRSRPERSELVRMHILEETSAEPSLQAKQLKLKRARLADDLNEKIAQRPGPMELVEKNILPVESSLKEAIIVGQVNYPKVADSSSFDEDSSDALSPEQPASHESQGSVPSPLEARVSEPLLSATSASPTQVVSQLPMGRDSREMLFLAEQPPLPPPPLLPPSLTNGTTIPTAKSTPTLIKQSQPKSASEKSQRSKKAKELKPKVKKLKYHQYIPPDQKQDRGAPPMDSSYAKILQQQQLFLQLQILNQQQQQHHNYQAILPAPPKSAGEALGSSGTPPVRSLSTTNSSSSSGAPGPCGLARQNSTSLTGKPGALPANLDDMKVAELKQELKLRSLPVSGTKTELIERLRAYQDQISPVPGAPKAPAATSILHKAGEVVVAFPAARLSTGPALVAAGLAPAEVVVATVASSGVVKFGSTGSTPPVSPTPSERSLLSTGDENSTPGDTFGEMVTSPLTQLTLQASPLQILVKEEGPRAGSCCLSPGGRAELEGRDKDQMLQEKDKQIEALTRMLRQKQQLVERLKLQLEQEKRAQQPAPAPAPLGTPVKQENSFSSCQLSQQPLGPAHPFNPSLAAPATNHIDPCAVAPGPPSVVVKQEALQPEPEPVPAPQLLLGPQGPSLIKGVAPPTLITDSTGTHLVLTVTNKNADSPGLSSGSPQQPSSQPGSPAPAPSAQMDLEHPLQPLFGTPTSLLKKEPPGYEEAMSQQPKQQENGSSSQQMDDLFDILIQSGEISADFKEPPSLPGKEKPSPKTVCGSPLAAQPSPSAELPQAAPPPPGSPSLPGRLEDFLESSTGLPLLTSGHDGPEPLSLIDDLHSQMLSSTAILDHPPSPMDTSELHFVPEPSSTMGLDLADGHLDSMDWLELSSGGPVLSLAPLSTTAPSLFSTDFLDGHDLQLHWDSCL
